The source of these data is article PMC3583217.

Sequences of proteins named here, by UniProt entry; tags and fusion partners are left off. Residues count along the entry.
UniProt P02769, 25-607: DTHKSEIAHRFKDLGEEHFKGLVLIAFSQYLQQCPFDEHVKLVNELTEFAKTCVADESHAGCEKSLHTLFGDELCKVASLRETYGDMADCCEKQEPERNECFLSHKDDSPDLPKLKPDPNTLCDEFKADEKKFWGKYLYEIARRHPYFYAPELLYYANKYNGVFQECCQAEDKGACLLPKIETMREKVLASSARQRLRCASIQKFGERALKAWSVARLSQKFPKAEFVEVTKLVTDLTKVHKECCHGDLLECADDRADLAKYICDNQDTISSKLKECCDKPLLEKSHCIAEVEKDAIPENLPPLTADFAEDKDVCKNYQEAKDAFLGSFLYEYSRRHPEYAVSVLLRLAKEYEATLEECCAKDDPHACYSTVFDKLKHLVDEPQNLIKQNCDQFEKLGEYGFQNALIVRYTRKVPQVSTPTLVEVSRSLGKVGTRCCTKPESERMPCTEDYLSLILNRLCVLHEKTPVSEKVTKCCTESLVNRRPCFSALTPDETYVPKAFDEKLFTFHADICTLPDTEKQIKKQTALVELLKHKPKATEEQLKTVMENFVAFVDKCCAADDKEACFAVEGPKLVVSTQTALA

The exact form of at least one protein or probe is not confirmed. For part of these data: Weaker means in comparison with the reference protein, sequence or condition of that experiment. For part of these data: At least one result comes from cells or an extract, where the contact may be indirect. For part of these data: At least one verdict was read from the data and is not stated in words by the source.

One series has as its system trypsin. The series can be described thus: flow cytometry on protein-coated beads. The settings on record: Hanks buffer (SELEX binding buffer with 0.1 mg/mL salmon sperm DNA and 1 mg/mL BSA), 37 C, 30 min; pH not stated; aptamer pool heated 95 C 5 min then iced in SELEX; commercial protein; protein details: coated on magnetic beads; single-stranded DNA.
For series [1], the target named is bovine serum albumin (BSA) (bovine) (UniProt P02769). Description: flow cytometry on protein-coated beads. The settings on record: Hanks buffer (SELEX binding buffer with 0.1 mg/mL salmon sperm DNA and 1 mg/mL BSA), 37 C, 30 min; pH not stated; aptamer pool heated 95 C 5 min then iced in SELEX; commercial protein; protein details: coated on magnetic beads; single-stranded DNA. (A flow cytometer gives signals particle by particle.)

The target in the next series is HER2 on SK-BR-3 cells (UniProt P04626). The series can be described thus: flow cytometry on cells. The settings on record: weak binding to HER2-negative MDA-MB-231 and MCF-7, Hanks buffer (SELEX binding buffer with 0.1 mg/mL salmon sperm DNA and 1 mg/mL BSA), 37 C, 30 min, pH not stated, aptamer pool heated 95 C 5 min then iced in SELEX, protein on the cell surface, single-stranded DNA.

For the sequence “AACCGCCCAAATCCCTAAGAGTCTGCACTTGTCATTTTGTATATGTATTTGGTTTTTGGCTCTCACAGACACACTACACACGCACA [HB5]”, the binding result with trypsin was “binds more weakly”; in series [1] it was “binds more weakly”; with HER2 on SK-BR-3 cells, “binds”.
